Results deposited as PubChem BioAssay AID1508588 (Peter MacCallum Cancer Centre, 2020).

Assay: 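Which gene losses make BRAF-mutant melanoma cells more responsive to vemurafenib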 (primary screen)
Cell system: human WM266.4 melanoma cells (BRAF V600 mutant)
Knock-down reagent: siRNA pool against human genes, 40 nM
Duration: 96 h from transfection to read-out
Challenge: vemurafenib 300 nM (about IC25), added 48 h after transfection, for 48 h; comparison arm got DMSO vehicle only
Detection: 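Cell gain (DAPI nuclei at end minus before drug, mean of two replicates) and medium lactate by absorbance per cell, both as ratio to non-targeting siRNA, also grouped into fold-change classes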
Direction: cell gain with vemurafenib: higher = more cell gain than with non-targeting siRNA; lactate per cell with vemurafenib: higher = more lactate made per cell
Hit rule: 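Enhancement is called by pairing each knock-down's vehicle-arm and drug-arm fold-change classes for viability or glycolysis; which class combinations qualify is not given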
Calls: active = enhances vemurafenib effect; inactive = no enhancement seen
This is one part, drawn at random, of about 18,000 reagents tested. 790 of them (4.4%) count as active. 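Calls rest on a combination of fold-change classes in drug and vehicle arms, not all shown here.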 Unmarked entries are inactive.

| gene knocked down | cell gain with vemurafenib | lactate per cell with vemurafenib |
| --- | --- | --- |
| WASHC5 (WASH complex subunit 5) | 0.98 | 0.3 |
| EEIG1 (estrogen-induced osteoclastogenesis regulator 1) | 0.93 | 1.14 |
| TCF7L2 (transcription factor 7 like 2) | 0.88 | 0.66 |
| FAIM2 (Fas apoptotic inhibitory molecule 2) | 1.08 | 0.83 |
| ZFP3 (ZFP3 zinc finger protein) | 0.9 | 0.99 |
| SF1 (splicing factor 1) | 0.54 | 0.42 |
| OARD1 (O-acyl-ADP-ribose deacylase 1) | 0.43 | 0.76 |
| POMT1 (protein O-mannosyltransferase 1) | 0.79 | 1.1 |
| WFDC11 (WAP four-disulfide core domain 11) | 0.52 | 0.9 |
| WDR17 (WD repeat domain 17) | 0.87 | 0.6 |
| TTC36 (tetratricopeptide repeat domain 36) | 1.03 | 0.88 |
| IFT54 (intraflagellar transport 54) | 0.2 | 0.22 |
| KRT74 (keratin 74) | 0.84 | 0.72 |
| CCNF (cyclin F) | 1 | 0.74 |
| KRT17 (keratin 17) | 0.57 | 1.03 |
| RELA (RELA proto-oncogene, NF-kB subunit) | 0.31 (active) | 0.26 |
| SELENOF (selenoprotein F) | 0.46 (active) | 0.46 |
| AMIGO3 (adhesion molecule with Ig like domain 3) | 0.74 | 1.29 |
| ARHGEF3 (Rho guanine nucleotide exchange factor 3) | 0.94 | 0.42 |
| BUD23 (BUD23 rRNA methyltransferase and ribosome maturation factor) | 0.41 | 0.52 |
| ADAMTS13 (ADAM metallopeptidase with thrombospondin type 1 motif 13) | 0.57 | 0.68 |
| EPB41L3 (erythrocyte membrane protein band 4.1 like 3) | 0.79 | 0.84 |
| HOXB1 (homeobox B1) | 0.7 | 1.1 |
| PIGW (phosphatidylinositol glycan anchor biosynthesis class W) | 0.22 | 1.03 |
| CYP4F8 (cytochrome P450 family 4 subfamily F member 8) | 0.82 | 0.34 |
| SRSF2 (serine and arginine rich splicing factor 2) | 0.3 | 1.01 |
| STAT2 (signal transducer and activator of transcription 2) | 0.47 | 1.24 |
| OPTN (optineurin) | 0.03 | 2.8 |
| SLC38A2 | 0.56 | 0.64 |
| C3orf62 (chromosome 3 open reading frame 62) | 0.23 | 0.44 |
| ACADVL (acyl-CoA dehydrogenase very long chain) | 0.93 | 0.82 |
| HNRNPUL1 (heterogeneous nuclear ribonucleoprotein U like 1) | 0.49 | 1.01 |
| UPB1 (beta-ureidopropionase 1) | 0.42 | 1 |
| CCL3L3 (C-C motif chemokine ligand 3 like 3) | 0.7 | 0.28 |

Reformatted: 5 of the entries above.
HOXB1 (homeobox B1) → cell gain with vemurafenib: 0.7; lactate per cell with vemurafenib: 1.1
PIGW (phosphatidylinositol glycan anchor biosynthesis class W) → cell gain with vemurafenib: 0.22; lactate per cell with vemurafenib: 1.03
CYP4F8 (cytochrome P450 family 4 subfamily F member 8) → cell gain with vemurafenib: 0.82; lactate per cell with vemurafenib: 0.34
SRSF2 (serine and arginine rich splicing factor 2) → cell gain with vemurafenib: 0.3; lactate per cell with vemurafenib: 1.01
STAT2 (signal transducer and activator of transcription 2) → cell gain with vemurafenib: 0.47; lactate per cell with vemurafenib: 1.24
